SMILES strings stand for the structures. This is one part of the list. The main result of the screen is listed elsewhere. These columns were measured beside it and carry no call. Most of these compounds were active or inconclusive in the main read-out, so they are no random draw. Potencies come from curve fits of mixed quality, noted in brackets.

The nature of the test: qHTS Assay to Find Inhibitors of Chronic Active B-Cell Receptor Signaling. Conditions: ABC-DLBCL IkBa-CBG/CBR reporter, luminescence ratio (green luciferase fused to IkBa over red control in TMD8 lymphoma cells), 4 h; measured here: CBR red luminescence, cell number. The procedure, abridged:
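Compounds up to 46 uM were incubated four hours with TMD8 cells whose green CBG68 luciferase is fused to IkappaBalpha; red CBR luminescence normalised the signal, and concentration-effect curves were fitted to fusion, red and ratio data.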
On to `CCCCCCc1nc(C(N)=O)c2[nH]c(=O)n(-c3ccccc3F)c2n1`, for which the concentration at half-maximal activity (AC50) was 7.94 µM [rising, partial curve, poor fit].

Turning to `COc1ccc(-n2nccc2-c2nn(-c3cccc(OC)c3)c(=O)n(C)c2=O)cc1`, the AC50 was 0.00517 µM [falling, full curve, poor fit].

As to `CCN1C(=NCCc2cccs2)N[C@@H](c2cccs2)C(C(=O)OC)=C1C`, the AC50 was 7.08 µM [falling, partial curve].

Take `O=C(/C=C/c1ccc([N+](=O)[O-])cc1)Nc1cccc(S(=O)(=O)NC2=NCCCCC2)c1`: the concentration at half-maximal activity (AC50) was 29.1 µM [falling, single point].

For `Cc1cccc(Nc2nc(-c3ccc(F)cc3)cs2)n1`, the AC50 was 0.158 µM [falling, partial curve, poor fit].

Consider `CCOc1ccc(C2=Nc3ccccc3C(c3ccc(N4CCOCC4)cc3)=NN2)cc1`, for which the concentration at half-maximal activity (AC50) is 5.62 µM [falling, full curve, poor fit].

On to `Oc1ccc(CN2CCCCC2)c2cccnc12`, for which the AC50 is 4.61 µM [rising, partial curve, poor fit].

For `COc1ccccc1CNc1cc(CSc2ccc(Cl)cc2)nc(C)n1`, the AC50 was 29.1 µM [falling, single point].

`N#CC(=C1CCCC1)c1nc(-c2ccccc2)cs1`: the AC50 was 1.58 µM [rising, partial curve].

Take `O=c1[nH]nc(SCCS(=O)(=O)c2ccc(F)cc2)n1-c1ccc2c(c1)OCCO2`: the half-maximal activity concentration (AC50) is 7.08 µM [falling, partial curve].

`CCOc1ccc(OCc2ccc(C(=O)OCc3ccccn3)o2)cc1`: the AC50 was 7.94 µM [falling, partial curve].

Turning to `Cc1cc(NS(=O)(=O)c2ccc(NC(=O)/C=C/c3ccco3)cc2)nc(C)n1`, the concentration at half-maximal activity (AC50) is 14.1 µM [falling, single point].

Turning to `Cc1ccc2nc(-c3ccc(N)cc3)sc2c1`, the AC50 was 4.47 µM [falling, partial curve, poor fit].

For `O=C(O)c1ccc(N/N=C/c2ccc(-c3ccccc3)cc2)cc1`, the half-maximal activity concentration (AC50) is 1.12 µM [falling, full curve].

As to `O=C(Nc1ccc(Cc2ccncc2)cc1)C1CCC(N2C(=O)C3C4C=CC(C5CC45)C3C2=O)CC1` (stereo not given), the AC50 was 0.731 µM [rising, full curve, poor fit].

Turning to `Cc1cc(O)ccc1N/C=C(\C#N)c1nc2ccccc2o1`, the half-maximal activity concentration (AC50) is 0.82 µM [rising, full curve, poor fit].

In the case of `O=C(O)c1ccc(NC(=O)c2cn(-c3ccccc3)nc2-c2ccc(Br)cc2)cc1`, the AC50 is 14.1 µM [falling, partial curve, poor fit].

Take `CCN(Cc1ccccc1)C(c1cccs1)c1nnnn1C1CCCCC1` (stereo not given): the AC50 was 0.206 µM [rising, full curve, poor fit].

Consider `O=C(CCCCn1c(=O)c2ccccc2n(CC(=O)Nc2ccc(F)cc2)c1=O)NCc1ccco1`, for which the AC50 was 18.4 µM [falling, partial curve, poor fit].

In the case of `Cc1c(-c2nc(N)nc(Nc3ccccc3F)n2)oc2ccccc12`, the AC50 was 5.17 µM [falling, partial curve, poor fit].

Turning to `O=C(c1cc2cc(Cl)ccc2[nH]1)N1CCc2ccccc2C1`, the half-maximal activity concentration (AC50) was 0.398 µM [rising, full curve].

In the case of `N/C(=N\OC(=O)COc1ccccc1Cl)c1ccccn1`, the half-maximal activity concentration (AC50) was 0.58 µM [rising, full curve, poor fit].

Turning to `CC(=O)c1ccc(C(=O)N2CCc3c([nH]c4ccccc34)C2c2cccc(C)n2)s1` (stereo not given), the concentration at half-maximal activity (AC50) was 25.1 µM [falling, single point].

On to `CC(=O)Nc1ccc(Nc2cc(C)nc(Nc3ccc(NC(C)=O)cc3)n2)cc1`, for which the half-maximal activity concentration (AC50) is 25.9 µM [falling, single point].

In the case of `COc1ccc(C2Nc3ccccc3C(=O)N2Cc2ccco2)cc1COc1ccccc1F` (stereo not given), the concentration at half-maximal activity (AC50) is 7.31 µM [falling, partial curve, poor fit].

On to `Cc1ccc(N2C(=O)[C@@H]3[C@H](C2=O)[C@H]2C=CC=NN2[C@@H]3C(=O)Nc2ccc(Cl)cc2)cc1`, for which the concentration at half-maximal activity (AC50) was 10 µM [falling, partial curve].

For the molecule `Cc1occc1C(=O)N1CCN(Cc2ccccc2)CC1`, the half-maximal activity concentration (AC50) is 6.51 µM [falling, single point].

As for `CCOc1ccc(N2CC(C(=O)OCC(=O)c3ccc(OC)cc3)CC2=O)cc1` (stereo not given), the AC50 was 0.1 µM [rising, full curve, poor fit].

As for `COc1ccc([N+](=O)[O-])cc1NC(=O)/C=C/C(=O)O`, the concentration at half-maximal activity (AC50) is 32.6 µM [falling, partial curve, poor fit].

Take `O=C(NCc1cccs1)c1cccc(Nc2nc3ccc(Br)cc3[nH]2)c1`: the half-maximal activity concentration (AC50) is 18.4 µM [falling, single point].

Regarding `CCOC(=O)c1c(O)c(O)c(C(=O)OCC)n1-c1ccccc1`, the concentration at half-maximal activity (AC50) is 22.4 µM [falling, single point].

As for `Cc1ccccc1-n1nc(C)c2cc(C(=O)NC3CC3)sc21`, the AC50 is 0.411 µM [rising, full curve].

Consider `Cc1cc(=O)[nH]c2nnc(-c3ccc(Cl)cc3)n12`, for which the AC50 is 0.891 µM [falling, full curve].

`COc1ccc(C(=S)N2CCN(c3cccc(Cl)c3)CC2)cc1`: the AC50 is 0.1 µM [rising, full curve, poor fit].

For `O=C(CSCc1ccccc1)Nc1ccc(Cl)cn1`, the AC50 is 2.91 µM [rising, partial curve].

For the molecule `COC(=O)c1cc(NC(=O)c2sc3ncn(Cc4cccc(F)c4)c(=O)c3c2C)cc(C(=O)OC)c1`, the AC50 was 6.31 µM [rising, partial curve].

As to `CCn1c(SCC(=O)Nc2oc(-c3ccccc3)c(-c3ccccc3)c2C#N)nnc1-c1ccncc1`, the AC50 is 29.1 µM [rising, single point].

With `COc1ccc(NC(=O)CSc2nc3[nH]ncc3c(=O)n2-c2ccccc2C)cc1OC`, the AC50 was 4.11 µM [rising, full curve, poor fit].

On to `Cc1cc(C)n(C(=O)CNC(=O)C2COc3ccccc3O2)n1` (stereo not given), for which the concentration at half-maximal activity (AC50) was 6.51 µM [rising, single point].

With `Cc1cc(C)cc(NC(=O)N2CCc3ccccc3C2)c1`, the AC50 was 20 µM [falling, partial curve, poor fit].

As to `CC(=O)c1ccc2c(c1)Cc1cc(C(C)=O)ccc1-2`, the AC50 is 2.31 µM [rising, full curve].

As to `O=C(Nc1ccccc1)c1nc2ccccc2s1`, the AC50 is 4.11 µM [falling, full curve].

Regarding `Cn1sc(NC(=O)c2ccccc2)nc1=O`, the AC50 is 20 µM [falling, single point].

On to `CN(C(=O)CSc1nnc(-c2n[nH]c3ccccc23)o1)c1ccccc1`, for which the half-maximal activity concentration (AC50) was 16.4 µM [falling, partial curve].

For `COc1cccc(CN(C(=O)c2cc3ccccc3oc2=O)C2CCS(=O)(=O)C2)c1` (stereo not given), the concentration at half-maximal activity (AC50) was 3.55 µM [rising, partial curve, poor fit].

In the case of `C/C=C(/C)C(=O)O[C@@H]1c2c(ccc3ccc(=O)oc23)OC(C)(C)[C@@H]1OC(=O)/C(C)=C\C`, the concentration at half-maximal activity (AC50) was 29.1 µM [falling, single point].

On to `CCn1c(O)c(N=NC(=O)CNC(=O)c2ccco2)c2ccccc21`, for which the half-maximal activity concentration (AC50) was 32.6 µM [falling, single point].

Take `Cc1cc(C)c(OCCn2ccnc2)c(C)c1`: the half-maximal activity concentration (AC50) is 35.5 µM [rising, single point].

With `COc1ccc(/C=N/n2c(SC)nnc(C(C)(C)C)c2=O)cc1OC`, the AC50 is 5.8 µM [rising, full curve].

On to `Cc1nn(C)cc1/C=N/NC(=S)Nc1ccc(Cl)cc1Cl`, for which the concentration at half-maximal activity (AC50) was 2.31 µM [rising, full curve].

`Cc1ccc(C2CC(c3ccccc3)=NN2C(=S)Nc2ccccc2)o1` (stereo not given): the AC50 was 10.3 µM [falling, partial curve, poor fit].

As to `CCOC(=O)CSc1nc2c(sc(=S)n2-c2ccccc2OC)c(=O)n1-c1ccccc1OC`, the AC50 was 35.5 µM [rising, single point].

Take `Cc1ccc(S(=O)(=O)CCC(=O)OCC(=O)c2c[nH]c3ccccc23)cc1`: the concentration at half-maximal activity (AC50) was 16.4 µM [falling, partial curve].

Consider `CC1(C)CN(c2cccc(-c3ccnc4ncnn34)c2)C1=O`, for which the concentration at half-maximal activity (AC50) is 11.2 µM [rising, partial curve].

With `Cc1cccc(NC(=O)c2cccc(OC(=S)N3CCOCC3)c2)c1`, the AC50 was 1.26 µM [falling, single point].

`CC(=O)Cn1nnc(-c2ccc(C(F)(F)F)cc2)n1`: the AC50 was 3.55 µM [rising, partial curve, poor fit].

`Cc1ccc(Oc2ccc(OCC(=O)NC(CC(C)C)C(=O)O)cc2)cc1` (stereo not given): the concentration at half-maximal activity (AC50) is 35.5 µM [falling, single point].

Consider `COc1cc([N+](=O)[O-])ccc1NC(=O)CN1CCCC1`, for which the AC50 is 12.6 µM [falling, partial curve, poor fit].

Consider `Cc1cccc(NC(=S)NNC(=S)NC2CCCCC2)c1C`, for which the AC50 is 14.1 µM [falling, single point].

As for `Cc1ccccc1CN1CCc2c(OCC(=O)N3CCCc4ccccc43)cccc2C1=O`, the AC50 was 29.1 µM [falling, single point].

On to `CCN(CC)C(=O)CC(c1ccc(N(C)C)cc1)c1c(O)cc(OC)cc1OC` (stereo not given), for which the AC50 was 6.31 µM [rising, single point].

On to `O=C(COc1nsnc1N1CCOCC1)Nc1cccc(Cl)c1`, for which the concentration at half-maximal activity (AC50) was 35.5 µM [falling, partial curve, poor fit].

`O=C(NCCCn1ccnc1)Nc1ccc(Cl)cc1Cl`: the half-maximal activity concentration (AC50) was 5.01 µM [rising, single point].

Take `O=C(NCCc1ccccc1)c1cccc(N2C(=O)C3CC=CCC3C2=O)c1` (stereo not given): the AC50 was 35.5 µM [falling, single point].

Regarding `COc1ccc(CCNC(=O)c2cnc3n(c2=O)CCS3)cc1OC`, the AC50 is 20.6 µM [rising, single point].

By AC50 is commonly meant the midpoint of the concentration-response curve, whichever way the signal moves.

Source of the values: PubChem BioAssay AID493014 (National Center for Advancing Translational Sciences (NCATS), 2011).
